# Measurements taken from article PMC8896665.
# Sequences of proteins named here, by UniProt entry; tags and fusion partners are left off. A change or cut given only in a name is not applied to a line headed by its entry.
# UniProt A0A0F6B1M3: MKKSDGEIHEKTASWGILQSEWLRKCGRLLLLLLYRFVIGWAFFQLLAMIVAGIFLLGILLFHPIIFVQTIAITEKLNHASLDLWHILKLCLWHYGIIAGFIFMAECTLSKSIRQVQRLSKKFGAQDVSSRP
# No constants are given. Whether binding was seen depends on the method and setting. In cells and extracts the contact can be indirect. Binding calls can cover weak binding; strength is not graded here.
# Target: UgtS-HA (S. Typhimurium)
# Assay: pull-down; in vitro synthesised proteins mixed in 500 ul TBS containing proteoliposomes (0.12 mg/ml), room temperature 2 h; pulled down with anti-HA magnetic beads at room temperature for 2 h (UgtS-HA as bait); Western blot with anti-FLAG or anti-HA
substance,measurement,value
UgtL-FLAG (from UniProt A0A0F6B1M3),binding,binds
